This passage reports mCherry and percent effect results from the supplement of paper PMC8256030.

Test [1] relates to SARS-CoV-2 -1 PRF reporter mCherry-FSE-GFP(-1). Kind of test: mCherry (red) intensity as percent of control; higher = higher upstream reporter expression. Particulars: 10 µM; 24 h; HEK293T.
The test system is the same in test [2]. Kind of test: percent effect, decrease of GFP/mCherry ratio (-1 PRF reporter) relative to controls; higher = stronger frameshift inhibition. Conditions: 10 µM; 24 h; HEK293T.

Values joined by “and” are separate entries in the source; they are usually repeats but may differ in a detail not shown here. Equal values may be shown once. Where a name gives a salt, the structure may show the parent alone. The list shows a part of the results. This data set is noisy: repeats of one test often differ as much as different tests do.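 HEK293T cells were given each compound shortly before transfection with a reporter in which red mCherry is followed by the SARS-CoV-2 frameshift element and then GFP in the −1 frame, so GFP appears only after frameshifting.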

As to `CCOC(=O)c1ccc(OCCC2CCN(c3ccc(C)nn3)CC2)cc1` [pirodavir], in test [1], the mCherry came to 71.4%. Further, the percent effect in test [2] was -4.93%.

In turn, `O=C(O)Cc1csc(-c2ccc(Cl)cc2)n1` [fenclozic acid] yielded a mCherry in test [1] of 106%. In addition, in test [2], the percent effect was -2.03%.

In test [1], `CC(C)(C)C(O)/C=C/c1ccc2c(c1)OCO2` (stereo not given) [stiripentol] returned a mCherry of 90.9%. In addition, the percent effect in test [2] is 2.02%.

As for `CC(C(O)c1ccc(O)cc1)N1CCC(Cc2ccccc2)CC1` (stereo not given) [Ifenprodil tartrate], the mCherry in test [1] came out at 100%. Also, the percent effect in test [2] worked out at 2.87%.

For `CC(=O)OC/C=C(C)/C=C/C=C(C)/C=C/C1=C(C)CCCC1(C)C`, the mCherry in test [1] came out at 119%. Further, the percent effect in test [2] is -3.34%.

`C[C@H]1[C@H](OC(=O)CCC(=O)O)O[C@@H]2O[C@@]3(C)CC[C@H]4[C@H](C)CC[C@@H]1[C@@]24OO3` had a mCherry in test [1] of 16.1%. The percent effect in test [2] came out at 2.42%.

Molecule `COc1cc2c(cc1OC)C(=O)C(CC1CCN(Cc3ccccc3)CC1)C2` (stereo not given) [Donepezil·HCl] yielded a mCherry in test [1] of 121%. Further, in test [2], the percent effect was -1.22%.

Molecule `CC(=O)O[C@H]1C[C@@]2(C)[C@@H](C[C@@H](O)[C@H]3[C@@]4(C)CC[C@@H](O)[C@@H](C)[C@@H]4CC[C@@]32C)/C1=C(\CCC=C(C)C)C(=O)O` gave a mCherry in test [1] of 112%. Moreover, the percent effect in test [2] is -14.7%.

`OC[C@H]1O[C@@H](n2cnc3c2N=CNC[C@H]3O)C[C@@H]1O` [Pentostatin] yielded a mCherry in test [1] of 91.1%. In test [2], the percent effect was -5.12%.

In test [1], `Cc1ccc([C@@H]2O[C@H](CO)[C@@H](O)[C@H](O)[C@H]2O)cc1Cc1ccc(-c2ccc(F)cc2)s1` [Canagliflozin] had a mCherry of 93.8%. The percent effect in test [2] is -2.79%.

For `O=C(OC1C[C@@H]2CC3C[C@H](C1)N2CC3=O)c1c[nH]c2ccccc12` (stereo not given in full) [Dolasteron], the mCherry in test [1] stood at 89.8%. Further, in test [2], the percent effect is -9.73%.

Consider `Cc1cc(N)c2ccccc2[n+]1CCCCCCCCCC[n+]1c(C)cc(N)c2ccccc21` [dequalinium chloride], for which the mCherry in test [1] turned out to be 97.9%. Besides, in test [2], the percent effect was -1.76%.

Take `CC(C)=CCC[C@](C)(O)[C@@H]1CC=C(C)CC1` [levomenol]: the mCherry in test [1] is 84.4%. Also, the percent effect in test [2] is -3.67%.

`CO[C@H]1O[C@@H]2O[C@@]3(C)CC[C@H]4[C@H](C)CC[C@@H]([C@H]1C)[C@@]24OO3` [artemether] showed a mCherry in test [1] of 146%. Moreover, the percent effect in test [2] amounted to 1.53%.

The molecule `O=P(O)(O)C(O)(Cn1ccnc1)P(=O)(O)O` [zoledronic acid] yielded a mCherry in test [1] of 101%. The percent effect in test [2] was -9.76%.

In test [1], `CC(C)(N)C(=O)N[C@@H](Cc1c[nH]cn1)C(=O)N[C@H](Cc1ccc2ccccc2c1)C(=O)N[C@H](Cc1ccccc1)C(=O)N[C@@H](CCCCN)C(N)=O` [ipamorelin] had a mCherry of 93.4%. The percent effect in test [2] was -11.6%.

On to `CC(=O)c1ccc2c(c1)C(=O)C1(CC1)O2` [spizofurone], for which the mCherry in test [1] worked out at 99.5%. Moreover, the percent effect in test [2] is -5.57%.

In test [1], `CNC(=C[N+](=O)[O-])NCCSCc1csc(CN(C)C)n1` gave a mCherry of 110%. In addition, the percent effect in test [2] was -6.47%.

`Cc1ccc2c(Cl)cc(Cl)c(O)c2n1` [chlorquinaldol] came in with a mCherry in test [1] of 113%. The percent effect in test [2] was -3.86%.

Turning to `COc1ccccc1OCC(O)CN1CCN(CC(=O)Nc2c(C)cccc2C)CC1` (stereo not given) [ranolazine], the mCherry in test [1] was 76.3% and 78.4%. Moreover, in test [2], the percent effect was -1.91% and 5.04%.

Regarding `C=C(C#N)C(=O)OCCCC` [enbucrilate], the mCherry in test [1] is 97%. Also, the percent effect in test [2] is -5.11%.

`CN(C)CCC=C1c2ccccc2C=Cc2ccccc21`: the mCherry in test [1] came out at 104%. Moreover, the percent effect in test [2] is -2.35%.

Consider `CC1(C)[C@@H]2CC[C@@]1(C)C(=O)C2`, for which, in test [1], the mCherry was determined as 82.5%. Moreover, the percent effect in test [2] is -5.06%.

`CC(=O)O[C@]1(C(C)=O)CC[C@H]2[C@@H]3C=C(C)C4=CC(=O)CC[C@]4(C)[C@H]3CC[C@@]21C` [Megestrol acetate]: the mCherry in test [1] amounted to 105%. In addition, the percent effect in test [2] was -1.72%.

As for `CC[N+](C)(CC)CCOC(=O)C(O)(c1ccccc1)C1CCCCC1` (stereo not given) [oxyphenonium bromide], the mCherry in test [1] was found to be 76.7%. Also, in test [2], the percent effect is -3.09%.

Turning to `NC(=O)c1ncn([C@@H]2O[C@H](CO)[C@@H](O)[C@H]2O)c1N` [acadesine], the mCherry in test [1] was 100%. Further, in test [2], the percent effect was determined as 1.02%.

Molecule `CCN1CCC[C@H]1CNC(=O)c1c(OC)ccc(Br)c1OC` [remoxipride] came in with a mCherry in test [1] of 92.3%. The percent effect in test [2] is 1.26%.

`NCCc1c[nH]cn1` [Histamine Phosphate] showed a mCherry in test [1] of 92.5%. Also, the percent effect in test [2] is -2.91%.

The molecule `COc1ccc(-n2c(C)c[nH]c2=O)cc1` [metazamide] had a mCherry in test [1] of 92.1%. The percent effect in test [2] is -6.69%.

In test [1], `CC(=O)OCC(=O)[C@@]1(O)CC[C@H]2[C@@H]3CCC4=CC(=O)CC[C@]4(C)[C@@]3(F)[C@@H](O)C[C@@]21C` yielded a mCherry of 112%. The percent effect in test [2] is -1.46%.
